# Test results taken from the supplement of paper PMC12067093, “Discovery and optimisation of a covalent ligand for TRIM25 and its application to targeted protein ubiquitination” (Chemical Science, 2025).
# The other results are listed elsewhere or left out.
# Compound: Cc1cc(ccc1-c1ccccc1)C(=O)N1CCCN(CC1)C(=O)CCl [compound 10]
# Assay: probe-labelled cysteine peptide fold change vs DMSO (competition) (log2 fold change); higher = less target engagement (more negative = stronger competition)
# Conditions: THP-1, incubation time: 4 h
# 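Note: competitive profiling in live THP-1 cells: cysteine peptides tagged with an iodoacetamide desthiobiotin (IA-DTB) probe, intensity after compound treatment relative to DMSO-treated cells.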
Target,probe-labelled cysteine peptide fold change (10 µM),probe-labelled cysteine peptide fold change (50 µM)
SF3A3_Q12874_145_YLDLHDCYLK (UniProt Q12874),0.0593,0.0982
SF3B6_Q9Y3B4_74_NACDHLSGFNVCNR (UniProt Q9Y3B4),0.0149,-0.15
SF3B3_Q15393_289_NDLDDPERGMIFVCSATHK (UniProt Q15393),0.111,0.0605
SHOC2_Q9UQ13_260_EIGNCTQITNLDLQHNELLDLPDTIGNLSSLSR (UniProt Q9UQ13),-0.0286,0.259
SLC16A3_O15427_161_RPMANGLAAAGSPVFLCALSPLGQLLQDR (UniProt O15427),-0.111,-0.0849
SF3B1_O75533_1244_VAIGPCR (UniProt O75533),-0.136,0.406
SKAP2_O75563_186_DCCFEISAPDK (UniProt O75563),0.0418,0.334
SKIV2L_Q15477_1014_KLEELIQGAQCVHSPR (UniProt Q15477),0.000295,0.063
SGO2_Q562F6_681_DNENQCDYR (UniProt Q562F6),0.0758,-0.25
SHCBP1_Q8NEM2_426_GDTFVDCTGADIK (UniProt Q8NEM2),0.00734,0.0924
SIL1_Q9H173_408_VLQTLGVLLTTCR (UniProt Q9H173),0.427,0.362
SHPK_Q9UHJ6_187_SYDAAGTIHDYVVAMLCGLPR (UniProt Q9UHJ6),0.291,0.329
SLC27A2_O14975_414_YDVEKDEPVRDENGYCVR (UniProt O14975),0.0781,0.0963
SF3B3_Q15393_589_EMSADVVCMSLANVPPGEQR (UniProt Q15393),-0.0758,0.0219
SEPT9_Q9UHD8_248_SQEATEAAPSCVGDMADTPR (UniProt Q9UHD8),-0.0293,-0.251
SLC25A1_P53007_141_GLLCGLGAGVAEAVVVVCPMETIK (UniProt P53007),0.166,0.0975
SIPA1L3_O60292_597_DALEYVIPELNIHCLR (UniProt O60292),0.0406,-0.039
SETD1B_Q9UPS6_1912_FINHSCNPNCYAK (UniProt Q9UPS6),-0.216,-0.0903
SF3B1_O75533_796_QCCGTDGVEANYIK (UniProt O75533),-0.0565,0.0169

Target,probe-labelled cysteine peptide fold change (10 µM),probe-labelled cysteine peptide fold change (50 µM)
SETD2_Q9BYW2_1241_TELSFSSSCEIPHVDGLHSSEELR (UniProt Q9BYW2),-0.0483,-0.244
SIN3A_Q96ST3_425_KPQLNNKPQRPSQNGCQIR (UniProt Q96ST3),-0.322,-0.761
SERPINB6_P35237_100_SCDFLSSFR (UniProt P35237),0.0275,-0.0148
SETX_Q7Z333_1398_AGSHTAQNSDIFVPESDRSDYNCTGGTEVLANSNRK (UniProt Q7Z333),-0.406,-0.192
SH2D4A_Q9H788_94_EVWVWVMGEHHLDKPYDVLCNEIIAER (UniProt Q9H788),-0.0245,-0.0157
SEPT6_Q14141_42+47_SVSQGFCFNILCVGETGLGK (UniProt Q14141),0.0263,0.409
SLC25A3_Q00325_136_GWAPTFLGYSMQGLCK (UniProt Q00325),0.0031,0.224
SHPRH_Q149N8_1435_TSGGVNPEPCPICAR (UniProt Q149N8),0.0157,0.123
SETX_Q7Z333_1368_LSDCESTDVKR (UniProt Q7Z333),-0.274,-0.786
SETD2_Q9BYW2_736_DLDDTCMLHK (UniProt Q9BYW2),-0.304,-0.445
SLC25A28_Q96A46_49_GAGGGEAGACRPPVR (UniProt Q96A46),-0.368,-0.406
SLC25A10_Q9UBX3_22+23_WYFGGLASCGAACCTHPLDLLK (UniProt Q9UBX3),0.103,0.133
SLC25A5_P05141_257_GTDIMYTGTLDCWR (UniProt P05141),-0.0133,0.173
SKIV2L_Q15477_877_VFTTLVLCDK (UniProt Q15477),-0.0936,0.412
SLC25A10_Q9UBX3_23_WYFGGLASCGAACCTHPLDLLK (UniProt Q9UBX3),0.166,0.36
SFMBT1_Q9UHJ3_659_IGRPPGGHSNLACALKK (UniProt Q9UHJ3),-0.175,-0.67
SHC1_P29353_212_KPCSRPLSSILGR (UniProt P29353),-0.0754,-0.391
SF3B3_Q15393_1156_SEHPPLCGR (UniProt Q15393),0.0524,0.191
